# Results are given in words; binding and its absence hold for the method and conditions named. Binding seen in cells or lysates may run through a third protein. Here binding means that the protein was enriched with, or labelled near, the bait; the list need not be complete.
# Target: HeV M protein fused to green fluorescent protein (GFP-HeV M), wild type (Hendra virus) (UniProt O89341)
# Assay: affinity purification with mass spectrometry
row,Molecule,binding
1,nucleolar and coiled-body phosphoprotein 1 (NOLC1) (from UniProt Q14978 1-699),binds
2,"Treacle protein (endogenous) (protein, UniProt Q13428 1-1488) MAEARKRRELLPLIYHHLLRAGYVRAAREVKEQSGQKCFLAQPVTLLDIYTHWQQTSELGRKRKAEEDAALQAKKTRVSDPISTSESSEEEEEAEAETAKATPRLASTNSSVLGADLPSSMKEKAKAETEKAGKTGNSMPHPATGKTVANLLSGKSPRKSAEPSANTTLVSETEEEGSVPAFGAAAKPGMVSAGQADSSSEDTSSSSDETDVEGKPSVKPAQVKASSVSTKESPARKAAPAPGKVGDVTPQVKGGALPPAKRAKKPEEESESSEEGSESEEEAPAGTRSQVKASEKILQVRAASAPAKGTPGKGATPAPPGKAGAVASQTKAGKPEEDSESSSEESSDSEEETPAAKALLQAKASGKTSQVGAASAPAKESPRKGAAPAPPGKTGPAVAKAQAGKREEDSQSSSEESDSEEEAPAQAKPSGKAPQVRAASAPAKESPRKGAAPAPPRKTGPAAAQVQVGKQEEDSRSSSEESDSDREALAAMNAAQVKPLGKSPQVKPASTMGMGPLGKGAGPVPPGKVGPATPSAQVGKWEEDSESSSEESSDSSDGEVPTAVAPAQEKSLGNILQAKPTSSPAKGPPQKAGPVAVQVKAEKPMDNSESSEESSDSADSEEAPAAMTAAQAKPALKIPQTKACPKKTNTTASAKVAPVRVGTQAPRKAGTATSPAGSSPAVAGGTQRPAEDSSSSEESDSEEEKTGLAVTVGQAKSVGKGLQVKAASVPVKGSLGQGTAPVLPGKTGPTVTQVKAEKQEDSESSEEESDSEEAAASPAQVKTSVKKTQAKANPAAARAPSAKGTISAPGKVVTAAAQAKQRSPSKVKPPVRNPQNSTVLARGPASVPSVGKAVATAAQAQTGPEEDSGSSEEESDSEEEAETLAQVKPSGKTHQIRAALAPAKESPRKGAAPTPPGKTGPSAAQAGKQDDSGSSSEESDSDGEAPAAVTSAQVIKPPLIFVDPNRSPAGPAATPAQAQAASTPRKARASESTARSSSSESEDEDVIPATQCLTPGIRTNVVTMPTAHPRIAPKASMAGASSSKESSRISDGKKQEGPATQVSKKNPASLPLTQAALKVLAQKASEAQPPVARTQPSSGVDSAVGTLPATSPQSTSVQAKGTNKLRKPKLPEVQQATKAPESSDDSEDSSDSSSGSEEDGEGPQGAKSAHTLGPTPSRTETLVEETAAESSEDDVVAPSQSLLSGYMTPGLTPANSQASKATPKLDSSPSVSSTLAAKDDPDGKQEAKPQQAAGMLSPKTGGKEAASGTTPQKSRKPKKGAGNPQASTLALQSNITQCLLGQPWPLNEAQVQASVVKVLTELLEQERKKVVDTTKESSRKGWESRKRKLSGDQPAARTPRSKKKKKLGAGEGGEASVSPEKTSTTSKGKAKRDKASGDVKEKKGKGSLGSQGAKDEPEEELQKGMGTVEGGDQSNPKSKKEKKKSDKRKKDKEKKEKKKKAKKASTKDSESPSQKKKKKKKKTAEQTV",binds
3,"RNA-binding protein 14 (RMB14) (protein, UniProt Q96PK6 1-669) MKIFVGNVDGADTTPEELAALFAPYGTVMSCAVMKQFAFVHMRENAGALRAIEALHGHELRPGRALVVEMSRPRPLNTWKIFVGNVSAACTSQELRSLFERRGRVIECDVVKDYAFVHMEKEADAKAAIAQLNGKEVKGKRINVELSTKGQKKGPGLAVQSGDKTKKPGAGDTAFPGTGGFSATFDYQQAFGNSTGGFDGQARQPTPPFFGRDRSPLRRSPPRASYVAPLTAQPATYRAQPSVSLGAAYRAQPSASLGVGYRTQPMTAQAASYRAQPSVSLGAPYRGQLASPSSQSAAASSLGPYGGAQPSASALSSYGGQAAAASSLNSYGAQGSSLASYGNQPSSYGAQAASSYGVRAAASSYNTQGAASSLGSYGAQAASYGAQSAASSLAYGAQAASYNAQPSASYNAQSAPYAAQQAASYSSQPAAYVAQPATAAAYASQPAAYAAQATTPMAGSYGAQPVVQTQLNSYGAQASMGLSGSYGAQSAAAATGSYGAAAAYGAQPSATLAAPYRTQSSASLAASYAAQQHPQAAASYRGQPGNAYDGAGQPSAAYLSMSQGAVANANSTPPPYERTRLSPPRASYDDPYKKAVAMSKRYGSDRRLAELSDYRRLSESQLSFRRSPTKSSLDYRRLPDAHSDYARYSGSYNDYLRAAQMHSGYQRRM",binds

# Source: article doi:10.1101/219071
